{
  "sequences": {"note": "The chains behind the UniProt entries cited, without tags or fusion partners.", "UniProt Q969V5": "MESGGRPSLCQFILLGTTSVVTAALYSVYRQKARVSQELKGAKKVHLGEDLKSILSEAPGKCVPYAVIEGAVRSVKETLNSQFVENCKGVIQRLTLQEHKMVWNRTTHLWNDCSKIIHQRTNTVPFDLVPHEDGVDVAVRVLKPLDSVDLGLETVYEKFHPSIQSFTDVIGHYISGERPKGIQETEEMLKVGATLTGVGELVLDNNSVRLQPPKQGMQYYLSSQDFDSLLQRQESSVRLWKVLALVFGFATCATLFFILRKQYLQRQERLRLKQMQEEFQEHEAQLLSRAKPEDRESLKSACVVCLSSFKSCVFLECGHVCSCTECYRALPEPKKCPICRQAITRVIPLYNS", "UniProt O00429": "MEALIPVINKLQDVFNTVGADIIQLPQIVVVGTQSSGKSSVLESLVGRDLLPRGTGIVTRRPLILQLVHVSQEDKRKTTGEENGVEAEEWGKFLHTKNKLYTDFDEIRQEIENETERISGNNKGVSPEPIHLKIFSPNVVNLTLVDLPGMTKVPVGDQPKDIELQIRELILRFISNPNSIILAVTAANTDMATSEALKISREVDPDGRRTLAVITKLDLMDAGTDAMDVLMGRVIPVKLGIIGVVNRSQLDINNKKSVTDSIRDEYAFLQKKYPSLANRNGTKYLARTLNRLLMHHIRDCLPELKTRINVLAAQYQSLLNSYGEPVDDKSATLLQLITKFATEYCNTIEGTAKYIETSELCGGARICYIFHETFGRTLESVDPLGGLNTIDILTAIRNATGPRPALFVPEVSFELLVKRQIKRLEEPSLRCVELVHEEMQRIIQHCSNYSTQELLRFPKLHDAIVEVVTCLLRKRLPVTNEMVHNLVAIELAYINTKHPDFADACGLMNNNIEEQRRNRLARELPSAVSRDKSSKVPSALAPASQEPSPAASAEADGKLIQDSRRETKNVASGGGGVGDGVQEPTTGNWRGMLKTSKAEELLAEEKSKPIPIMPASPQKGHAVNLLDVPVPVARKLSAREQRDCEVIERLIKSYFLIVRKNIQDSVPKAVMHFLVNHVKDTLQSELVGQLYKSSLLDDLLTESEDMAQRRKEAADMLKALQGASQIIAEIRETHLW", "UniProt Q8IXI2": "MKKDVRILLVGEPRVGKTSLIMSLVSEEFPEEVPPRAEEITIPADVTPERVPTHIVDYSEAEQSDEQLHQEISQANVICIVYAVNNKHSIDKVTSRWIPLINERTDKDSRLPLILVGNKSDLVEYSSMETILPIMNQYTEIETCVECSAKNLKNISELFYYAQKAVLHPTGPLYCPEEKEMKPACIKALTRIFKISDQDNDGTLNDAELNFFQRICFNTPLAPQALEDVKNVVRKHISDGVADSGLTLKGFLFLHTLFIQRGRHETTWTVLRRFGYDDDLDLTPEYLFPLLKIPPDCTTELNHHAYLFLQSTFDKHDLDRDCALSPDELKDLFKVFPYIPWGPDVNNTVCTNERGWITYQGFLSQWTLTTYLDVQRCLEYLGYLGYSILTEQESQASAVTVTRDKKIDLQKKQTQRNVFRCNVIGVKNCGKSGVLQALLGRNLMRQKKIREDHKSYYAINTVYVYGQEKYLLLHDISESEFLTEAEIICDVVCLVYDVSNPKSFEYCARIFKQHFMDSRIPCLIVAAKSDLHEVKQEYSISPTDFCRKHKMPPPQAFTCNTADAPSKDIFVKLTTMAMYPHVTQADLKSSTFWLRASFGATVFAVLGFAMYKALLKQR", "UniProt Q7Z434": "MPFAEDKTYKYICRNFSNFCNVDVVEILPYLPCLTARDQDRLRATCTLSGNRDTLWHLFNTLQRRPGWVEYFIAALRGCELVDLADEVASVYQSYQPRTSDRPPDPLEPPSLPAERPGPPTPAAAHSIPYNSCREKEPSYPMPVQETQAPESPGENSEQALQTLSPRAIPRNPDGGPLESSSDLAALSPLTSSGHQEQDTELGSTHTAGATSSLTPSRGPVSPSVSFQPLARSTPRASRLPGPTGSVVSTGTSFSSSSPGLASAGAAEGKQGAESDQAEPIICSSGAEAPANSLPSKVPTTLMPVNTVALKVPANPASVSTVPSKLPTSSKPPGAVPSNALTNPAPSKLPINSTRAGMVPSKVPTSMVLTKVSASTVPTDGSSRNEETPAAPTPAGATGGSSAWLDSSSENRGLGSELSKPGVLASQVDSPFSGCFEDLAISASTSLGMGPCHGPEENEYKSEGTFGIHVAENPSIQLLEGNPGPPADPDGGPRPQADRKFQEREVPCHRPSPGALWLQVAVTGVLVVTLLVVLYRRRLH", "UniProt Q16665": "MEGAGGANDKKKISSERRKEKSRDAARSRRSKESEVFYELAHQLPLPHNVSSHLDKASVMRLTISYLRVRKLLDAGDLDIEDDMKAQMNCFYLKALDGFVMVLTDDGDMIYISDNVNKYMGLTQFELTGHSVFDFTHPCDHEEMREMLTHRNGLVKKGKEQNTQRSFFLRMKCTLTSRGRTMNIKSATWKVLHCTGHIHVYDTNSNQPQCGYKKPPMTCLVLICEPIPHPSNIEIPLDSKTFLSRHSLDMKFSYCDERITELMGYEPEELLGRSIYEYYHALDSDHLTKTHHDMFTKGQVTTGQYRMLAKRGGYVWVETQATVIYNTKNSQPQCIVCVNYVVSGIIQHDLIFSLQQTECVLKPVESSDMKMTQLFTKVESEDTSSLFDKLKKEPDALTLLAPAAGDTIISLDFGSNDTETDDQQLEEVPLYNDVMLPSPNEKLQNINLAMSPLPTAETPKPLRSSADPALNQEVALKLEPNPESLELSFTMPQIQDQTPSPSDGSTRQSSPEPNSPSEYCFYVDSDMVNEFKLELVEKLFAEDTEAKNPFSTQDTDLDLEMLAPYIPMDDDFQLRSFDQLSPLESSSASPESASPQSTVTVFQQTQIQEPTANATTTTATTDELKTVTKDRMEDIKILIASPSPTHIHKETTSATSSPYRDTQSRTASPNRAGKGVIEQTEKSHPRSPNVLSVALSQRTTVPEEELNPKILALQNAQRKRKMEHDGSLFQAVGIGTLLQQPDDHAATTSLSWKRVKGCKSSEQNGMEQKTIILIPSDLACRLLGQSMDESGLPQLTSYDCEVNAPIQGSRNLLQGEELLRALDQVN", "UniProt P13861": "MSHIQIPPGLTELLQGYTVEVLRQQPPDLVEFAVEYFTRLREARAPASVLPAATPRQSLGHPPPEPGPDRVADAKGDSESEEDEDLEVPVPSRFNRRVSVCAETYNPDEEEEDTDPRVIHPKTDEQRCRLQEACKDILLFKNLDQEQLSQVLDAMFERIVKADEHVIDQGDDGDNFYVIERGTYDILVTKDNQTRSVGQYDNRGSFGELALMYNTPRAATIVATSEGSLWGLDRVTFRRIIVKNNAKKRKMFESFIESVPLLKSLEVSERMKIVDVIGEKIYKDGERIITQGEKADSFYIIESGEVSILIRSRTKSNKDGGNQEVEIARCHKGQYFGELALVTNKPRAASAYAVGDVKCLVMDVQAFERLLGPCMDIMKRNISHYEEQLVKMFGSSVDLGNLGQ", "UniProt Q70CQ3": "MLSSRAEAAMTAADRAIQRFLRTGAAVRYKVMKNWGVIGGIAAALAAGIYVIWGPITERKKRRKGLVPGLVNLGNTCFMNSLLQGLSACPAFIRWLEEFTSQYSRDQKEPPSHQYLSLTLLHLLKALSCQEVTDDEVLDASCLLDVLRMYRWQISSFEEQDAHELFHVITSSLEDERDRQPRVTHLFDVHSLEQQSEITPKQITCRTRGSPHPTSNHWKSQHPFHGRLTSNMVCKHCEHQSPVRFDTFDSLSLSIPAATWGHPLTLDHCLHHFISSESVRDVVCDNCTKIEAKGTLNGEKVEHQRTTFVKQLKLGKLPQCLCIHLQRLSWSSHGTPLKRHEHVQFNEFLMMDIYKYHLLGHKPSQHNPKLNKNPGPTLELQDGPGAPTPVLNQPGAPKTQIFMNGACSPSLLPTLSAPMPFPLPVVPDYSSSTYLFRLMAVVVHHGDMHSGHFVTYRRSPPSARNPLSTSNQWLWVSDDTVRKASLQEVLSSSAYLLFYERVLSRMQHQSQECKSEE", "UniProt Q27J81": "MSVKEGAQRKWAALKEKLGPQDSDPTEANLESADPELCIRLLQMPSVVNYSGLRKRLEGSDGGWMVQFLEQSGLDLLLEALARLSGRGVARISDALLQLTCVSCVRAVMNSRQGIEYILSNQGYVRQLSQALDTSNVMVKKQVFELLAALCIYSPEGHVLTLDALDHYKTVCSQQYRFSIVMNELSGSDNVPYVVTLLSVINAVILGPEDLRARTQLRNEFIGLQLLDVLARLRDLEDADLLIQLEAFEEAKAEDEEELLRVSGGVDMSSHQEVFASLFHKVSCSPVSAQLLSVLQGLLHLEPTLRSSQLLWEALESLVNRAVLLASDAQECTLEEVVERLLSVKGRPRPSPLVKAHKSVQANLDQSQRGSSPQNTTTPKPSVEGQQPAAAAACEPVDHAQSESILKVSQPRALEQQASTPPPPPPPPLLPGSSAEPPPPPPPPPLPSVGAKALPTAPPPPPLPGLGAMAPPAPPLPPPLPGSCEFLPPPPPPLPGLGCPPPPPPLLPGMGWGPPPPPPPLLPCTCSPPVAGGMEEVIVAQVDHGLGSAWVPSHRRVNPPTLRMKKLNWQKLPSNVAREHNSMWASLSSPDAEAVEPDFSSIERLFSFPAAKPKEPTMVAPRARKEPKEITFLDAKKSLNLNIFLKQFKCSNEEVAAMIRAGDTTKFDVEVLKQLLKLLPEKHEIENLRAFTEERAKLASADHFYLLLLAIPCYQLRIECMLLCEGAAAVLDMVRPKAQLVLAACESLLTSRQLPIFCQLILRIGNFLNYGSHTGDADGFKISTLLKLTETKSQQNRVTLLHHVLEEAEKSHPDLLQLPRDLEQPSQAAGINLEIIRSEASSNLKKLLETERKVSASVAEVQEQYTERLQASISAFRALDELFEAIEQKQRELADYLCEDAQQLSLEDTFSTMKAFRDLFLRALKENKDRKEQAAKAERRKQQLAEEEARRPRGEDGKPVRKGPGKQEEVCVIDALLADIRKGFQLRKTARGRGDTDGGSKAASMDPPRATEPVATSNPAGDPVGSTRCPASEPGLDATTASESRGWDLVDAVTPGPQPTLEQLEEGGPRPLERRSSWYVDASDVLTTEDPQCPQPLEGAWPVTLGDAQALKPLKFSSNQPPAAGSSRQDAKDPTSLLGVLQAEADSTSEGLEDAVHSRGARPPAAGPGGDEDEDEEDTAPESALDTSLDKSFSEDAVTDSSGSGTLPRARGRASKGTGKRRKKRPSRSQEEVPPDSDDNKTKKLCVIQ", "UniProt Q07812": "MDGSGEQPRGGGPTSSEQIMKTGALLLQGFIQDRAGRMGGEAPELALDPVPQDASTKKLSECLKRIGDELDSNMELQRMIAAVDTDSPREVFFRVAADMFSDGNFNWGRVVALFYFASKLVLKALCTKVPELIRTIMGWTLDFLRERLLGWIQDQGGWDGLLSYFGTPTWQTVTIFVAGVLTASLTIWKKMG"},
  "source": "paper doi:10.1101/2022.03.03.482848",
  "molecules": {"B1": {"name": "DRP1 receptor MFF (protein, UniProt Q9GZY8 1-342)", "chain": "MSKGTSSDTSLGRVSRAAFPSPTAAEMAEISRIQYEMEYTEGISQRMRVPEKLKVAPPNADLEQGFQEGVPNASVIMQVPERIVVAGNNEDVSFSRPADLDLIQSTPFKPLALKTPPRVLTLSERPLDFLDLERPPTTPQNEEIRAVGRLKRERSMSENAVRQNGQLVRNDSLWHRSDSAPRNKISRFQAPISAPEYTVTPSPQQARVCPPHMLPEDGANLSSARGILSLIQSSTRRAYQQILDVLDENRRPVLRGGSAAATSNPHHDNVRYGISNIDTTIEGTSDDLTVVDAASLRRQIIKLNRRLQLLEEENKERAKREMVMYSITVAFWLLNSWLWFRR"}, "B2": {"name": "ABCD3/PMP70, peroxisomal bile acid transporter (human, endogenous in HEK293) (protein, UniProt P28288 1-659)", "chain": "MAAFSKYLTARNSSLAGAAFLLLCLLHKRRRALGLHGKKSGKPPLQNNEKEGKKERAVVDKVFFSRLIQILKIMVPRTFCKETGYLVLIAVMLVSRTYCDVWMIQNGTLIESGIIGRSRKDFKRYLLNFIAAMPLISLVNNFLKYGLNELKLCFRVRLTKYLYEEYLQAFTYYKMGNLDNRIANPDQLLTQDVEKFCNSVVDLYSNLSKPFLDIVLYIFKLTSAIGAQGPASMMAYLVVSGLFLTRLRRPIGKMTITEQKYEGEYRYVNSRLITNSEEIAFYNGNKREKQTVHSVFRKLVEHLHNFILFRFSMGFIDSIIAKYLATVVGYLVVSRPFLDLSHPRHLKSTHSELLEDYYQSGRMLLRMSQALGRIVLAGREMTRLAGFTARITELMQVLKDLNHGKYERTMVSQQEKGIEGVQVIPLIPGAGEIIIADNIIKFDHVPLATPNGDVLIRDLNFEVRSGANVLICGPNGCGKSSLFRVLGELWPLFGGRLTKPERGKLFYVPQRPYMTLGTLRDQVIYPDGREDQKRKGISDLVLKEYLDNVQLGHILEREGGWDSVQDWMDVLSGGEKQRMAMARLFYHKPQFAILDECTSAVSVDVEGYIYSHCRKVGITLFTVSHRKSLWKHHEYYLHMDGRGNYEFKQITEDTVEFGS"}},
  "note": "No constants are given. Whether binding was seen depends on the method and setting. In cells and extracts the contact can be indirect. These calls come from enrichment with a bait or labelling near it, and not all partners need be listed. For some assays here: No binding means not detected with the bait.",
  "data": [
    {"target": "MAPL-BirA*Flag (full-length human MAPL fused to BirA* and Flag) (human) (UniProt Q969V5)", "experiment": "proximity labelling", "values": [
      {"molecule": "B1", "binding": "binds"},
      {"molecule": "B2", "binding": "binds"}
    ]},
    {"target": "MAPL-BirA*Flag (full-length human MAPL fused to BirA* and Flag) (human) (UniProt Q969V5)", "experiment": "proximity labelling", "remark": "another data set of the same source", "values": [
      {"molecule": "B2", "binding": "binds"}
    ]},
    {"target": "MAPL-BirA*Flag (full-length human MAPL fused to BirA* and Flag) (human) (UniProt Q969V5)", "experiment": "proximity labelling", "remark": "another data set of the same source", "values": [
      {"molecule": "fission GTPase DRP1 (human, endogenous in HEK293) (from UniProt O00429 1-736)", "binding": "binds"},
      {"molecule": "MIRO1 (from UniProt Q8IXI2 1-618)", "binding": "binds weakly"},
      {"molecule": "antiviral signaling protein MAVS (from UniProt Q7Z434 1-540)", "binding": "binds"},
      {"molecule": "HIF1α (from UniProt Q16665 1-826)", "binding": "no binding"},
      {"molecule": "cAMP-dependent protein kinase type II-alpha regulatory subunit PRKAR2A (from UniProt P13861 1-404)", "binding": "binds"},
      {"molecule": "USP30, a regulator of mitophagy and pexophagy (from UniProt Q70CQ3 1-517) (enzyme)", "binding": "binds"},
      {"molecule": "inverted formin INF2 (from UniProt Q27J81 1-1249)", "binding": "binds"},
      {"molecule": "BAX (from UniProt Q07812 1-192)", "binding": "binds weakly"}
    ]}
  ]
}
